Source: the supplement of paper PMC12823440, “Inhibitors supercharge kinase turnover through native proteolytic circuits” (Nature, 2025)
The other results are listed elsewhere or left out. Hit calls seldom repeat between salt and free forms of one compound.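 Kinases, fused to nanoluciferase, were expressed in K562 cells; luminescence was measured every 4 h from 2 to 18 h as percent of control (DMSO = 100%, positive control = 0%). A time point is decreased if signal falls significantly (2 sigma). Hits were called by the authors by a rule that is not shown; the count of time points alone does not decide it.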

Chains of the proteins cited; added tags and fusions are not shown. Lines headed by an entry give the natural chain unless they say otherwise; changes in a name come on top.
UniProt Q9Y616: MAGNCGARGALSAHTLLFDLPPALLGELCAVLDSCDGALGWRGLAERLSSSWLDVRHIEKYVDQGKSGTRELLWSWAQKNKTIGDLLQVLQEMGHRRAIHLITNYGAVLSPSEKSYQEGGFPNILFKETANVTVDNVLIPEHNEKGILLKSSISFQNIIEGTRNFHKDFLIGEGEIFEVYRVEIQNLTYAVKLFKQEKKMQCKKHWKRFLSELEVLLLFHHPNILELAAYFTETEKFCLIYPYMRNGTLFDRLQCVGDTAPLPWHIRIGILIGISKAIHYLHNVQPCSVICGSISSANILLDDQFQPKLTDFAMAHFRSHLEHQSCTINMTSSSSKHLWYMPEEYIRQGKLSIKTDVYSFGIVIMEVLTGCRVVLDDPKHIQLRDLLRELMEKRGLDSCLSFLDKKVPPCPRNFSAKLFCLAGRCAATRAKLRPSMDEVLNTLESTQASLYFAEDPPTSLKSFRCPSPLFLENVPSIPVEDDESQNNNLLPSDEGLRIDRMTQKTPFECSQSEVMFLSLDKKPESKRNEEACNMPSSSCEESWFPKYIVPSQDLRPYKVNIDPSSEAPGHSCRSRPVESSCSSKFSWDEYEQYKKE
UniProt P23458: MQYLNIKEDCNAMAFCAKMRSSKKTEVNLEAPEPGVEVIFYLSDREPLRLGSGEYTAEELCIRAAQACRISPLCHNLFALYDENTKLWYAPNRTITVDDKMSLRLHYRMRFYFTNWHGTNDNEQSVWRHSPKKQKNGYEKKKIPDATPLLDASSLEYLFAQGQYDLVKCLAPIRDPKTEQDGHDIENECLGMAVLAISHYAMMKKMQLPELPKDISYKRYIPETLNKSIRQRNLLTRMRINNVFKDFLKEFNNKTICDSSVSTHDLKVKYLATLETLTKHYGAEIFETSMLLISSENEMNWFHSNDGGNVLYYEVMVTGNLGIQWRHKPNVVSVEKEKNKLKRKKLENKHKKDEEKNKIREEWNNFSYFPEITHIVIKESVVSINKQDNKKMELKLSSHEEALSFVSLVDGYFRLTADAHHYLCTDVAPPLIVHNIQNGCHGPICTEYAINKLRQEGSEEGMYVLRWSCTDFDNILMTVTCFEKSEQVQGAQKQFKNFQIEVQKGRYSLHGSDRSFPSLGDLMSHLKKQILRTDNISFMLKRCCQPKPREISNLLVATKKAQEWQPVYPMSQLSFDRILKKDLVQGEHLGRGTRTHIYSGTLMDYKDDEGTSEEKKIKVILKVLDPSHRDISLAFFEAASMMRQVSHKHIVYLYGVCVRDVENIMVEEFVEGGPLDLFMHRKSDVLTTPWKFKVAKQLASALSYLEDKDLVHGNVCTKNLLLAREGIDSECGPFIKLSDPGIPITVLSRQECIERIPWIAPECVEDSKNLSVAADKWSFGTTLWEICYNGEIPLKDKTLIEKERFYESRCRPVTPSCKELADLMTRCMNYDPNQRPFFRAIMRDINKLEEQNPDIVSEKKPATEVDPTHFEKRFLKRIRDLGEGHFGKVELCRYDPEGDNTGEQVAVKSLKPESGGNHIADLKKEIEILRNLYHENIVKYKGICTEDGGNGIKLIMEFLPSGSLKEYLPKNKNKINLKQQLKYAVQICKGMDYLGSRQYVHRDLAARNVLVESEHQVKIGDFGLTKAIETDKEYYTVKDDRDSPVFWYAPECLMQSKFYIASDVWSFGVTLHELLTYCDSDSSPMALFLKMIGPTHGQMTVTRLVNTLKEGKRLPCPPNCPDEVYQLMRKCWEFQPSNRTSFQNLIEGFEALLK
UniProt P06239: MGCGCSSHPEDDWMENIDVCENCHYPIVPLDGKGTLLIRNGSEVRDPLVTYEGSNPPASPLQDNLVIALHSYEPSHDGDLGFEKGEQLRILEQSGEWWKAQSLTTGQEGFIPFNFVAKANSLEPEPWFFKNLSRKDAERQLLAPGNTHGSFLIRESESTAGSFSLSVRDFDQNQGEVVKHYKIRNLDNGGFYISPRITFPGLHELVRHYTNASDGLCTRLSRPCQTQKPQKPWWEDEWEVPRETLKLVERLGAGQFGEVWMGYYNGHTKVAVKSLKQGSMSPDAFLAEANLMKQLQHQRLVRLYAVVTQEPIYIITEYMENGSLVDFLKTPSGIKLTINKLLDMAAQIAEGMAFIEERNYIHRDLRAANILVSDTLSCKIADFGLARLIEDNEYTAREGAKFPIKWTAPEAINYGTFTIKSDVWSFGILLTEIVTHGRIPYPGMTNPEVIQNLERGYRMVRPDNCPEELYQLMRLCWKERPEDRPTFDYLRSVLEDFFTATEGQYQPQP
UniProt P53667: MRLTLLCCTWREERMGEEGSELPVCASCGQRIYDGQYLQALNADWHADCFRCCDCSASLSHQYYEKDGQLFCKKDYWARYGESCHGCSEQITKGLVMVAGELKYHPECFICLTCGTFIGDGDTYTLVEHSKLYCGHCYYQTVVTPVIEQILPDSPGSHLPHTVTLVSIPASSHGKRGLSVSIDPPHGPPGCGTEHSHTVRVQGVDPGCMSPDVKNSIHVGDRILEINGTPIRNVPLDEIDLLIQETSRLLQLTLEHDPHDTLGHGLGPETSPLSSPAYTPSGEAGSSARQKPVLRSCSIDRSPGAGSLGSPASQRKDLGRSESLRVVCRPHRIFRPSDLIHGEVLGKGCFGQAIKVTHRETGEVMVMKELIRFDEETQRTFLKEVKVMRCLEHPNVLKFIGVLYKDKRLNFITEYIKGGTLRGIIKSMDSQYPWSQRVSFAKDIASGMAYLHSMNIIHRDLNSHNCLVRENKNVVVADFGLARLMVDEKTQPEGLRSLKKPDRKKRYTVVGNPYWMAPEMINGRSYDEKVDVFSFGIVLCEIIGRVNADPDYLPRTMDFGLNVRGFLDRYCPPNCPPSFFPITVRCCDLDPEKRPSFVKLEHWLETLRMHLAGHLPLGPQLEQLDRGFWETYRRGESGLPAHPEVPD
UniProt P53671: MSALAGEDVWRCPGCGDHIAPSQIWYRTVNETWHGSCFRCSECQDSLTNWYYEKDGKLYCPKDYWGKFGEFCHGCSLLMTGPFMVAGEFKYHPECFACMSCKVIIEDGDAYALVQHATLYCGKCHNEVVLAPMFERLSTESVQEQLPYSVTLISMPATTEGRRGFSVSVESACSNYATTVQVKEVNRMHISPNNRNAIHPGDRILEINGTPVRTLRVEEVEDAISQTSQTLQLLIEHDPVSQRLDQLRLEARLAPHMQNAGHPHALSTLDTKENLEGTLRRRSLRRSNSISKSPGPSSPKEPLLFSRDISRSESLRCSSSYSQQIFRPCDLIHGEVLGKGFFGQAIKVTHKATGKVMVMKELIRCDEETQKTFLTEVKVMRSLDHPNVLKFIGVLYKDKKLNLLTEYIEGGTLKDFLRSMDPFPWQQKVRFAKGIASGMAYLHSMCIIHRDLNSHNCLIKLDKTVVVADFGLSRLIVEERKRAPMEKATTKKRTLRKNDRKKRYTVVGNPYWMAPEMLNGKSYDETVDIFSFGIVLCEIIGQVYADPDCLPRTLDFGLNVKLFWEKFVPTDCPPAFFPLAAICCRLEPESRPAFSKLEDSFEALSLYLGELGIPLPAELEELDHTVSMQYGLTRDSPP
UniProt Q8IWU2: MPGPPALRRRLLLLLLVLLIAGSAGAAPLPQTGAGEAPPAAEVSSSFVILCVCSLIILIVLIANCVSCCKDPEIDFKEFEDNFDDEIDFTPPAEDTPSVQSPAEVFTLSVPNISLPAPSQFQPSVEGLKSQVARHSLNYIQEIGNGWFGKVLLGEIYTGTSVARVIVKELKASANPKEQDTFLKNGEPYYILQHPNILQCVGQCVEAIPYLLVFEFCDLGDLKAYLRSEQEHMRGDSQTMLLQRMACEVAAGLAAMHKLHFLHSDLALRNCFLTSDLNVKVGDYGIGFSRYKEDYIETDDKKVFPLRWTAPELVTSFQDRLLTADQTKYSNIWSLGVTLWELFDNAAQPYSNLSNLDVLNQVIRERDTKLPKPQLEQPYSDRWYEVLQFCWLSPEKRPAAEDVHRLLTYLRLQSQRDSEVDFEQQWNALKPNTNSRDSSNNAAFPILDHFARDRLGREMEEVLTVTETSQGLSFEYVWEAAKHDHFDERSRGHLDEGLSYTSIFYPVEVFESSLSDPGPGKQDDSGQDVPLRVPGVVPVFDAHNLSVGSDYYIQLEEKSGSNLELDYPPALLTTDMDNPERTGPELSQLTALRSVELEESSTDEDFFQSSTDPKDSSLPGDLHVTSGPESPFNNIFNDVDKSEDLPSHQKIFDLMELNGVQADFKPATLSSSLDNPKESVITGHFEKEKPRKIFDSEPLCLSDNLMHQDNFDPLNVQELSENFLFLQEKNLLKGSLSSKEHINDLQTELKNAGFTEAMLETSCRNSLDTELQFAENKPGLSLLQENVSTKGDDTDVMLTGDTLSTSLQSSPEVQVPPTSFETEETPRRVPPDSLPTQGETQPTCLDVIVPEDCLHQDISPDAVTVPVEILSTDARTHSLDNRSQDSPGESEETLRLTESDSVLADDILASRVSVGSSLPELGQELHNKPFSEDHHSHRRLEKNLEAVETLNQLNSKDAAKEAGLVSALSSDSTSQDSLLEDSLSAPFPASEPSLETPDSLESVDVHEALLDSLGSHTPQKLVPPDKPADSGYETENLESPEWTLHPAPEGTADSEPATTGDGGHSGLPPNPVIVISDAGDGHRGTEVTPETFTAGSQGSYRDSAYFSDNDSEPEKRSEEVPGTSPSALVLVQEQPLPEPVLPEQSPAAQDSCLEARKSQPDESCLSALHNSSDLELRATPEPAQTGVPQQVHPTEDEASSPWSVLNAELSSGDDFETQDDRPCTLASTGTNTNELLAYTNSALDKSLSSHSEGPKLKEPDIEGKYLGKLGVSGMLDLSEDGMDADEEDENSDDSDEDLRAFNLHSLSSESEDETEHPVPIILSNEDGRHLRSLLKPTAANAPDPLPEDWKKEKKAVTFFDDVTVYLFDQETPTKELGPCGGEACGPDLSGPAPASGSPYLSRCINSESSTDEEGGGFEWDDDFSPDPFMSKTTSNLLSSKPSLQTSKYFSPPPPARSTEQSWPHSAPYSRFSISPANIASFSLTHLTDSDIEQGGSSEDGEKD
UniProt P07948: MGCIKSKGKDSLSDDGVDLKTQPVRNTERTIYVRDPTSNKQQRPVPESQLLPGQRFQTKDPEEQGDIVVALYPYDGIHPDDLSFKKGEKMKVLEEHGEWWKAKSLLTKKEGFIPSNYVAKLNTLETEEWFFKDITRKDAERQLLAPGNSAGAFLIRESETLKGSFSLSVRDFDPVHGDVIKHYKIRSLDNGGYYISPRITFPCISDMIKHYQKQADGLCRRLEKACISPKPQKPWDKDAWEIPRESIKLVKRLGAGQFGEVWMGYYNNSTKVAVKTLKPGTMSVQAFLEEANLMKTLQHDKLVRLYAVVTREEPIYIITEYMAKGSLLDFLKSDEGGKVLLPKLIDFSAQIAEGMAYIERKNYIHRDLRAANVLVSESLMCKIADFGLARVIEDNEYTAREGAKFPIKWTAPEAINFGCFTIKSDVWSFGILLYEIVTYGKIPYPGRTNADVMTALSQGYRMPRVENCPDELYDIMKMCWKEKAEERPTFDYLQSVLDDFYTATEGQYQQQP
UniProt Q12851: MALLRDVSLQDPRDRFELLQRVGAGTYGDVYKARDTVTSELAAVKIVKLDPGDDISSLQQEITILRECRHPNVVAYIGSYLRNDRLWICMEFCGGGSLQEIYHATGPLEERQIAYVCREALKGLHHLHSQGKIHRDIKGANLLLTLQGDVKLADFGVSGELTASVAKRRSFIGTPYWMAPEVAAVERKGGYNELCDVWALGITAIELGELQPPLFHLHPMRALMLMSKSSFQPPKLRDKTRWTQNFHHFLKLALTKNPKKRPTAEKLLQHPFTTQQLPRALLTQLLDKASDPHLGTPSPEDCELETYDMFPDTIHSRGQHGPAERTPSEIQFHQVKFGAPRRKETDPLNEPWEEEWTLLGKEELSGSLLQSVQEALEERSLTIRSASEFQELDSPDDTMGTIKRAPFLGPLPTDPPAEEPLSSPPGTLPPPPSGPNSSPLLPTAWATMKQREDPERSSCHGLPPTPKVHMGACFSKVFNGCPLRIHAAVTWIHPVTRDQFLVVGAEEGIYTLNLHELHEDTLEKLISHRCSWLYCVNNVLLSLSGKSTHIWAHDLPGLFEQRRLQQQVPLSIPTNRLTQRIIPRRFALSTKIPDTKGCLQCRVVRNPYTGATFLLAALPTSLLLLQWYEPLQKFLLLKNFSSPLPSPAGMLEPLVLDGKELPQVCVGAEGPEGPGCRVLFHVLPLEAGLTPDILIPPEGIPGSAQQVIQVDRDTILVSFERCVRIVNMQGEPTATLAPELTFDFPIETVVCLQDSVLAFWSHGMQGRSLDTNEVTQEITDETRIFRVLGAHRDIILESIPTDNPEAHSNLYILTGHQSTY

Assays:
Experiment in all cases: kinase-Nluc reporter destabilization hit call (1 = scored as downregulated) (binary); higher = compound decreases kinase abundance
Conditions in all cases: K562; 2-18 h
IRAK3 = IRAK3 (UniProt Q9Y616)
JAK1 = JAK1 (UniProt P23458)
LCK = LCK (UniProt P06239)
LIMK1 = LIMK1 (UniProt P53667)
LIMK2 = LIMK2 (UniProt P53671)
LMTK2 = LMTK2 (UniProt Q8IWU2)
LYN = LYN (UniProt P07948)
MAP2K1 = MAP2K1 (UniProt Q02750)
MAP2K2 = MAP2K2 (UniProt P36507)
MAP4K2 = MAP4K2 (UniProt Q12851)

Measured: kinase-Nluc reporter destabilization hit call

N#Cc1cnc2c(Cl)cc(NCc3cn(CCN4CCCCCC4)nn3)cc2c1Nc1ccc(F)c(Cl)c1 [Cot inhibitor-1] (10 µM)
inactive: IRAK3 = 0 | JAK1 = 0 | LCK 0 | LIMK1 = 0 | LIMK2 = 0 | LMTK2 = 0 | LYN 0 | MAP2K1 = 0 | MAP2K2 = 0 | MAP4K2 = 0

Cc1cc(CSc2ccccc2C(=O)NCCNc2ccc(C(F)(F)F)cc2[N+](=O)[O-])on1 (10 µM)
inactive: IRAK3 = 0 | JAK1 = 0 | LCK 0 | LIMK1 = 0 | LIMK2 = 0 | LMTK2 = 0 | LYN 0 | MAP2K1 = 0 | MAP2K2 = 0 | MAP4K2 = 0

NS(=O)(=O)c1ccc(Nc2nc(-c3cccc(-c4ccccc4)c3)c3[nH]cnc3n2)cc1 (10 µM)
inactive: IRAK3 = 0 | JAK1 = 0 | LCK 0 | LIMK1 = 0 | LIMK2 = 0 | LMTK2 = 0 | LYN 0 | MAP2K1 = 0 | MAP2K2 = 0 | MAP4K2 = 0
